Structures can show the parent of a compound that is named as a salt. The list shows a part of the results. Most values lie within the scatter of the assay; repeated measurements hardly agree.
Each compound was assayed on A549 (assay: surface PD-L1 immunofluorescence intensity relative to IFN-gamma-only control (ratio); higher = more PD-L1 expression). Details: 10 µM; exposure time 24 h; IFN-gamma 100 ng/mL.

Compound | surface PD-L1 immunofluorescence intensity
NS(=O)(=O)C#Cc1ccccc1 [Pifithrin->m] | 0.953
CO[C@@H]1[C@H](O)[C@@H](CO)O[C@H]1n1cnc2c(NC3CCCCC3)ncnc21 | 0.994
CC(C)C1C2CCC(C2)C1N (configuration not stated) | 1
CNCC[C@@H](Oc1ccccc1C)c1ccccc1 [Tomoxetine hydrochloride] | 0.99
O=C(CCCCC(=O)Nc1c(I)cc(I)c(C(=O)O)c1I)Nc1c(I)cc(I)c(C(=O)O)c1I [Iodipamide] | 1.06
COCCCOc1ccnc(C[S+]([O-])c2nc3ccccc3[nH]2)c1C (configuration not stated) [Rabeprazole Sodium salt] | 1.05
O=C(O)Cc1cc(I)c(Oc2ccc(O)c(I)c2)c(I)c1 [Tiratricol, 3,3',5-triiodothyroacetic acid] | 0.95
O=P(O)(O)C(O)(Cc1cccnc1)P(=O)(O)O [Risedronic acid (Actonel)] | 1.08
O=P(O)(O)C(O)(Cc1cccnc1)P(=O)(O)O [Risedronate sodium] | 1.07
O=C(O)c1cc(O)c(O)c(O)c1 [Gallic acid] | 1.14
CCN(CC)C(=O)N1CCN(C)CC1 [Diethylcarbamazine citrate] | 0.874
Cn1cnc(N)c2ncnc1-2 [3-Methyladenine] | 0.943
Cn1cnc(N)c2ncnc1-2 [3-Methyladenine (3-MA)] | 1.05
CC[C@]1(O)C[C@@H]2CN(CCc3c([nH]c4ccccc34)[C@@](C(=O)OC)(c3cc4c(cc3OC)N(C)[C@H]3[C@@](O)(C(=O)OC)[C@H](OC(C)=O)[C@]5(CC)C=CCN6CC[C@]43[C@@H]65)C2)C1 [Vinblastine] | 1.13
Cc1cc(CS(=O)(=O)c2ccccc2)cc(OCc2ccc(CN3CCC[C@@H]3CO)cc2)c1 | 1.01
Nc1cc(N2CCCCC2)nc(N)[n+]1OS(=O)(=O)[O-] [Minoxidil sulfate] | 0.991
CCN(CCCc1ccccc1)CCCc1ccccc1 [Alverine citrate salt] | 0.932
COc1cc2c(cc1OC)CN(CCc1ccc(NC(=O)c3cccc4c(=O)c5cccc(OC)c5[nH]c34)cc1)CC2 [Elacridar] | 1.16
Clc1ccc(COC(Cn2ccnc2)c2ccc(Cl)cc2Cl)cc1 (configuration not stated) [Econazole nitrate] | 0.969
C[C@H](CCC(=O)NCC(=O)O)[C@H]1CC[C@H]2[C@@H]3[C@H](O)C[C@@H]4C[C@H](O)CC[C@]4(C)[C@H]3C[C@H](O)[C@]12C [Glycocholic acid] | 1.03
Clc1ccccc1C(c1ccccc1)(c1ccccc1)n1ccnc1 [Clotrimazole] | 0.901
C=CC[N@@+]12CC[C@@]34c5ccccc5N5/C=C6/[C@H]7C[C@H]8[C@@]9(CC[N@@+]8(CC=C)C/C7=C/CO)c7ccccc7N(/C=C(/[C@@H](C[C@@H]31)/C(=C\CO)C2)[C@H]54)[C@@H]69 [Alcuronium chloride] | 1.18

Some of the entries so far, with tabs.
Compound	surface PD-L1 immunofluorescence intensity
Clc1ccccc1C(c1ccccc1)(c1ccccc1)n1ccnc1 [Clotrimazole]	0.901
C=CC[N@@+]12CC[C@@]34c5ccccc5N5/C=C6/[C@H]7C[C@H]8[C@@]9(CC[N@@+]8(CC=C)C/C7=C/CO)c7ccccc7N(/C=C(/[C@@H](C[C@@H]31)/C(=C\CO)C2)[C@H]54)[C@@H]69 [Alcuronium chloride]	1.18

From the supplement of paper PMC8732350
